No constants are given. Whether binding was seen depends on the method and setting. For some of these results: Binding seen in cells or lysates may run through a third protein. Some binding calls cover weakened binding; strength is not graded here. Tags and fused reporters may be left off the sequences shown.

Amino acid sequences for entries named in this document (tags omitted).
UniProt P62491: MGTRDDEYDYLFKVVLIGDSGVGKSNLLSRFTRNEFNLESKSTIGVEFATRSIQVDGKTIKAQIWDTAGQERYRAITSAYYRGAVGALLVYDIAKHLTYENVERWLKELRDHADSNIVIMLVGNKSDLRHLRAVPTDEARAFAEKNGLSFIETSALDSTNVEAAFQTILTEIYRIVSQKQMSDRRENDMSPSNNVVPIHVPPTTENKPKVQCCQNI
UniProt Q92930: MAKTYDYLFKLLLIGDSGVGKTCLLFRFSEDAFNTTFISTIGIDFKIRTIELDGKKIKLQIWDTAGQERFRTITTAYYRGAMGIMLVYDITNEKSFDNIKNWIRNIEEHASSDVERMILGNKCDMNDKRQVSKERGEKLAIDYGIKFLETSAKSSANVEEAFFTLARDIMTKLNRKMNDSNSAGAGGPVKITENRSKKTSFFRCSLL
UniProt P61006: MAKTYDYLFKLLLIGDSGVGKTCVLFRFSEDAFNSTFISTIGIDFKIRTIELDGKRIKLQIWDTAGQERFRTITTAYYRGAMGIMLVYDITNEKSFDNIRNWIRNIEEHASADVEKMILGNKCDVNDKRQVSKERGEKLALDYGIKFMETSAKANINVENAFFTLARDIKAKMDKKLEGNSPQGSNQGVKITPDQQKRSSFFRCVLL
UniProt Q96NA2: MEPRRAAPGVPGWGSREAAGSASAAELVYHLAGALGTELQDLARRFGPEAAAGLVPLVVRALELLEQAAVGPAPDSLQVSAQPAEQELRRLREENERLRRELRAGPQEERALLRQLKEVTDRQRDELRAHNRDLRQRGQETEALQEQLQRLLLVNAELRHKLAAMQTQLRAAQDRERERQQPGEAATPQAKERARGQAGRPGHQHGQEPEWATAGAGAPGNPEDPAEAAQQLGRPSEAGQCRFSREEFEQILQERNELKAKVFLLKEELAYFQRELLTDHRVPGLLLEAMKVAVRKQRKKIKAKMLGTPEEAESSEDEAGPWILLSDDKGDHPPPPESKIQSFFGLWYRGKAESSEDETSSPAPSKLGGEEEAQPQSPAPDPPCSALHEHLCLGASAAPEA

From article doi:10.1101/2023.08.21.554162 come the findings set out here.

The labels stand for the following.
T1: mito-mScarlet-DENND6A (human) (UniProt Q8IWF6)
T1 sequence: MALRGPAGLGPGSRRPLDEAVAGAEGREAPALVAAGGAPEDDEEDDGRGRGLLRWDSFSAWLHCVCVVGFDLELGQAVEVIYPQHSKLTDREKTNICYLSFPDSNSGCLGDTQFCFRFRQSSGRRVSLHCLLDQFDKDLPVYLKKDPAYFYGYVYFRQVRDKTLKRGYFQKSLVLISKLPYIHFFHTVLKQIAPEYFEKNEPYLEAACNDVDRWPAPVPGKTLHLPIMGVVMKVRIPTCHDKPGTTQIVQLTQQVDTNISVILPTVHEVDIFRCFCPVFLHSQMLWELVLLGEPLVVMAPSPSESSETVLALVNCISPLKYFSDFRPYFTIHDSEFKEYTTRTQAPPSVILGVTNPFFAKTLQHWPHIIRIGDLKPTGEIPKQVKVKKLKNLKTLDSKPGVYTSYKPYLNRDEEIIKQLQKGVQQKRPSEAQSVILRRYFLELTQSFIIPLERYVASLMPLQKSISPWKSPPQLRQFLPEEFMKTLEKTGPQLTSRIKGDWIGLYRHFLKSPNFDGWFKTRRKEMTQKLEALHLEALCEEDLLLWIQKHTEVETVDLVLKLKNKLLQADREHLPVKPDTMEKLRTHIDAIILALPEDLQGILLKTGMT

T2: GST-Rab34-T66N (UniProt Q9BZG1)
T2 sequence: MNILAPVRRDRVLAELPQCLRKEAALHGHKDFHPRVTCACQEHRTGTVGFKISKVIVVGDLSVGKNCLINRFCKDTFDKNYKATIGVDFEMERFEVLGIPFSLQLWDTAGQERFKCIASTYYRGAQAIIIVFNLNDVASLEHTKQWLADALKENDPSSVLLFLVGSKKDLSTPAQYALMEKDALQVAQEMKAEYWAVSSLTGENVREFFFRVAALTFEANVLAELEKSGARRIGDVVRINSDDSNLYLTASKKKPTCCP

B1: GFP-Rab25 (protein, UniProt P57735 1-213)
chain: MGNGTEEDYNFVFKVVLIGESGVGKTNLLSRFTRNEFSHDSRTTIGVEFSTRTVMLGTAAVKAQIWDTAGLERYRAITSAYYRGAVGALLVFDLTKHQTYAVVERWLKELYDHAEATIVVMLVGNKSDLSQAREVPTEEARMFAENNGLLFLETSALDSTNVELAFETVLKEIFAKVSKQRQNSIRTNAITLGSAQAGQEPGPGEKRACCISL
B2: GFP-Rab22B (protein, UniProt Q13636 1-195)
chain: MMAIRELKVCLLGDTGVGKSSIVCRFVQDHFDHNISPTIGASFMTKTVPCGNELHKFLIWDTAGQERFHSLAPMYYRGSAAAVIVYDITKQDSFYTLKKWVKELKEHGPENIVMAIAGNKCDLSDIREVPLKDAKEYAESIGAIVVETSAKNAINIEELFQGISRQIPPLDPHENGNNGTIKVEKPTMQASRRCC
B3: GFP-Rab19 (protein, UniProt A4D1S5 1-217)
chain: MHFSSSARAADENFDYLFKIILIGDSNVGKTCVVQHFKSGVYTETQQNTIGVDFTVRSLDIDGKKVKMQVWDTAGQERFRTITQSYYRSAHAAIIAYDLTRRSTFESIPHWIHEIEKYGAANVVIMLIGNKCDLWEKRHVLFEDACTLAEKYGLLAVLETSAKESKNIEEVFVLMAKELIARNSLHLYGESALNGLPLDSSPVLMAQGPSEKTHCTC
B4: GFP-Rab3C (protein, UniProt Q96E17 1-227)
chain: MRHEAPMQMASAQDARYGQKDSSDQNFDYMFKLLIIGNSSVGKTSFLFRYADDSFTSAFVSTVGIDFKVKTVFKNEKRIKLQIWDTAGQERYRTITTAYYRGAMGFILMYDITNEESFNAVQDWSTQIKTYSWDNAQVILVGNKCDMEDERVISTERGQHLGEQLGFEFFETSAKDNINVKQTFERLVDIICDKMSESLETDPAITAAKQNTRLKETPPPPQPNCAC
B5: GFP-Rab30 (protein, UniProt Q15771 1-203)
chain: MSMEDYDFLFKIVLIGNAGVGKTCLVRRFTQGLFPPGQGATIGVDFMIKTVEINGEKVKLQIWDTAGQERFRSITQSYYRSANALILTYDITCEESFRCLPEWLREIEQYASNKVITVLVGNKIDLAERREVSQQRAEEFSEAQDMYYLETSAKESDNVEKLFLDLACRLISEARQNTLVNNVSSPLPGEGKSISYLTCCNFN
B6: GFP-Rab22A (protein, UniProt Q9UL26 1-194)
chain: MALRELKVCLLGDTGVGKSSIVWRFVEDSFDPNINPTIGASFMTKTVQYQNELHKFLIWDTAGQERFRALAPMYYRGSAAAIIVYDITKEETFSTLKNWVKELRQHGPPNIVVAIAGNKCDLIDVREVMERDAKDYADSIHAIFVETSAKNAININELFIEISRRIPSTDANLPSGGKGFKLRRQPSEPKRSCC
B7: GFP-Rab43 (protein, UniProt Q86YS6 1-212)
chain: MAGPGPGPGDPDEQYDFLFKLVLVGDASVGKTCVVQRFKTGAFSERQGSTIGVDFTMKTLEIQGKRVKLQIWDTAGQERFRTITQSYYRSANGAILAYDITKRSSFLSVPHWIEDVRKYAGSNIVQLLIGNKSDLSELREVSLAEAQSLAEHYDILCAIETSAKDSSNVEEAFLRVATELIMRHGGPLFSEKSPDHIQLNSKDIGEGWGCGC
B8: GFP-Rab3B (protein, UniProt P20337 1-219)
chain: MASVTDGKTGVKDASDQNFDYMFKLLIIGNSSVGKTSFLFRYADDTFTPAFVSTVGIDFKVKTVYRHEKRVKLQIWDTAGQERYRTITTAYYRGAMGFILMYDITNEESFNAVQDWATQIKTYSWDNAQVILVGNKCDMEEERVVPTEKGQLLAEQLGFDFFEASAKENISVRQAFERLVDAICDKMSDSLDTDPSMLGSSKNTRLSDTPPLLQQNCSC
B9: GFP-Rab32 (protein, UniProt Q13637 1-225)
chain: MAGGGAGDPGLGAAAAPAPETREHLFKVLVIGELGVGKTSIIKRYVHQLFSQHYRATIGVDFALKVLNWDSRTLVRLQLWDIAGQERFGNMTRVYYKEAVGAFVVFDISRSSTFEAVLKWKSDLDSKVHLPNGSPIPAVLLANKCDQNKDSSQSPSQVDQFCKEHGFAGWFETSAKDNINIEEAARFLVEKILVNHQSFPNEENDVDKIKLDQETLRAENKSQCC
B10: GFP-Rab3D (protein, UniProt O95716 1-219)
chain: MASAGDTQAGPRDAADQNFDYMFKLLLIGNSSVGKTSFLFRYADDSFTPAFVSTVGIDFKVKTVYRHDKRIKLQIWDTAGQERYRTITTAYYRGAMGFLLMYDIANQESFAAVQDWATQIKTYSWDNAQVILVGNKCDLEDERVVPAEDGRRLADDLGFEFFEASAKENINVKQVFERLVDVICEKMNESLEPSSSSGSNGKGPAVGDAPAPQPSSCSC
B11: GFP-Rab34 (protein, UniProt Q9BZG1 1-259)
chain: MNILAPVRRDRVLAELPQCLRKEAALHGHKDFHPRVTCACQEHRTGTVGFKISKVIVVGDLSVGKTCLINRFCKDTFDKNYKATIGVDFEMERFEVLGIPFSLQLWDTAGQERFKCIASTYYRGAQAIIIVFNLNDVASLEHTKQWLADALKENDPSSVLLFLVGSKKDLSTPAQYALMEKDALQVAQEMKAEYWAVSSLTGENVREFFFRVAALTFEANVLAELEKSGARRIGDVVRINSDDSNLYLTASKKKPTCCP
B12: GFP-Rab4B (protein, UniProt P61018 1-213)
chain: MAETYDFLFKFLVIGSAGTGKSCLLHQFIENKFKQDSNHTIGVEFGSRVVNVGGKTVKLQIWDTAGQERFRSVTRSYYRGAAGALLVYDITSRETYNSLAAWLTDARTLASPNIVVILCGNKKDLDPEREVTFLEASRFAQENELMFLETSALTGENVEEAFLKCARTILNKIDSGELDPERMGSGIQYGDASLRQLRQPRSAQAVAPQPCGC
B13: GFP-Rab39A (protein, UniProt Q14964 1-217)
chain: METIWIYQFRLIVIGDSTVGKSCLLHRFTQGRFPGLRSPACDPTVGVDFFSRLLEIEPGKRIKLQLWDTAGQERFRSITRSYYRNSVGGFLVFDITNRRSFEHVKDWLEEAKMYVQPFRIVFLLVGHKCDLASQRQVTREEAEKLSADCGMKYIETSAKDATNVEESFTILTRDIYELIKKGEICIQDGWEGVKSGFVPNTVHSSEEAVKPRKECFC
B14: DENND6A-GFP (protein, UniProt Q8IWF6 1-608)
chain: MALRGPAGLGPGSRRPLDEAVAGAEGREAPALVAAGGAPEDDEEDDGRGRGLLRWDSFSAWLHCVCVVGFDLELGQAVEVIYPQHSKLTDREKTNICYLSFPDSNSGCLGDTQFCFRFRQSSGRRVSLHCLLDQFDKDLPVYLKKDPAYFYGYVYFRQVRDKTLKRGYFQKSLVLISKLPYIHFFHTVLKQIAPEYFEKNEPYLEAACNDVDRWPAPVPGKTLHLPIMGVVMKVRIPTCHDKPGTTQIVQLTQQVDTNISVILPTVHEVDIFRCFCPVFLHSQMLWELVLLGEPLVVMAPSPSESSETVLALVNCISPLKYFSDFRPYFTIHDSEFKEYTTRTQAPPSVILGVTNPFFAKTLQHWPHIIRIGDLKPTGEIPKQVKVKKLKNLKTLDSKPGVYTSYKPYLNRDEEIIKQLQKGVQQKRPSEAQSVILRRYFLELTQSFIIPLERYVASLMPLQKSISPWKSPPQLRQFLPEEFMKTLEKTGPQLTSRIKGDWIGLYRHFLKSPNFDGWFKTRRKEMTQKLEALHLEALCEEDLLLWIQKHTEVETVDLVLKLKNKLLQADREHLPVKPDTMEKLRTHIDAIILALPEDLQGILLKTGMT
B15: Rab34 (endogenous) (protein, UniProt Q9BZG1 1-259)
chain: MNILAPVRRDRVLAELPQCLRKEAALHGHKDFHPRVTCACQEHRTGTVGFKISKVIVVGDLSVGKTCLINRFCKDTFDKNYKATIGVDFEMERFEVLGIPFSLQLWDTAGQERFKCIASTYYRGAQAIIIVFNLNDVASLEHTKQWLADALKENDPSSVLLFLVGSKKDLSTPAQYALMEKDALQVAQEMKAEYWAVSSLTGENVREFFFRVAALTFEANVLAELEKSGARRIGDVVRINSDDSNLYLTASKKKPTCCP

The target in the first assay is T1, mito-mScarlet-DENND6A (human). Nature of the assay: mitochondrial recruitment assay in cells.
Consider GFP-Rab11A (from UniProt P62491 1-216), for which the binding entry was “binds”.
GFP-Rab8B (from UniProt Q92930 1-207): the binding entry is on record as “binds”.
As for GFP-Rab8A (from UniProt P61006 1-207), the binding result is “binds”.
On the same count and under the same terms, the result for B1 reads “binds”; that for B2, “binds”; that for B3, “binds”.
In the case of B4, the binding entry is “binds”.
The same measure, in the same setting: the result for B5 reads “binds”.
As to B6, the binding result is “binds”.
As to B7, the binding result is given as “binds”.
The same measure, in the same setting: next, B8: “binds”.
B9: the binding result is reported as “binds”.
Still for that read-out and setting: the result for B10 reads “binds”; that for B11, “binds”.
On the same count and under the same terms, the result for B12 reads “binds”; that for B13, “binds”.

The target in a further assay is T2, GST-Rab34-T66N. Nature of the assay: pull-down.
For B14, the binding result is “binds”.

In another assay the target is T7-RILP (UniProt Q96NA2). Briefly: pull-down.
For B15, the binding result is “binds”.
As for B14, the binding entry is “binds”.
